From patent publication US10702592B2, “Peptides and combination of peptides for use in immunotherapy against NHL and other cancers” (Immatics Biotechnologies GmbH, priority 2016, dated 2020)
For part of these data: For expression read-outs the peptide stands for its source gene, whose mRNA was measured; the gene is not named for every peptide.

Tests used:
[1] = system: source gene mRNA; test: RNAseq expression profiling of source genes, NHL vs normal tissues (expression scores); set-up: species or system human; key: very highly over-expressed in tumors compared to a panel of normal tissues (+++); highly over-expressed in tumors compared to a panel of normal tissues (++); over-expressed in tumors compared to a panel of normal tissues (+); details: source gene over-expression in tumors compared to a panel of normal tissues
[2] = system: NHL samples; test: Identification and label-free LC-MS quantitation of HLA-presented peptides: presentation profile/score, NHL vs normal tissues; set-up: species or system human; key: very highly over-presented on tumors compared to a panel of normal tissues (+++); highly over-presented on tumors compared to a panel of normal tissues (++); over-presented on tumors compared to a panel of normal tissues (+); details: NHL tumors compared to a panel of normal tissues
[3] = system: other tumor types (tumor samples vs normal tissues); test: LC-MS detection / over-presentation of peptides on additional tumor types; set-up: species or system human; details: for Other relevant organs/diseases: additional tumor types on which the peptide was found: over-presented on more than 5% of measured tumor samples, or presented on more than 5% with ratio of geometric means tumor vs normal tissues larger than 3; for Other relevant organs / diseases (additional tumor types with over-presentation): over-presented on >5% of measured tumor samples, or presented on >5% with ratio of geometric means tumor vs normal >3

Substance | Gene Expression (expression score) [1] | Peptide Presentation [2] | Other relevant organs/diseases [3] | Other relevant organs / diseases (additional tumor types with over-presentation) [3]
61: peptide found in DNMT1 (gene looked up) (SLLNKDLSL; listed as Homo sapiens) [compound 61] | + | + | Uterine Cancer | Esophageal Cancer, AML, HNSCC
91: peptide found in TIGIT (gene looked up) (HLSSTTAQV; listed as Homo sapiens) [compound 91] | ++ | +++ |  | 
268: peptide found in MAP4K1 (gene looked up) (VLFPLPTPL; listed as Homo sapiens) [compound 268] | + | +++ | CLL | AML
238: peptide found in CR2 (gene looked up) (YQYGAVVTL; listed as Homo sapiens) [compound 238] | ++ |  | CLL | 
43: peptide found in KDM2B (gene looked up) (ALLEGVKNV; listed as Homo sapiens) [compound 43] | + | + | CLL, Melanoma, OC | SCLC, BRCA
133: peptide found in MKI67 (gene looked up) (ALEELTGFREL; listed as Homo sapiens) [compound 133] | + | +++ | Esophageal Cancer | 
158: peptide found in TAS1R3 (gene looked up) (KVQDVLHQV; listed as Homo sapiens) [compound 158] | +++ | +++ |  | 
229: peptide found in PARP1 (gene looked up) (ILSPWGAEV; listed as Homo sapiens) [compound 229] | ++ |  | CLL, AML, Melanoma, Urinary bladder cancer | 
260: peptide found in DUSP2 (gene looked up) (RLDEAFDFV; listed as Homo sapiens) [compound 260] | ++ | ++ | Melanoma, Urinary bladder cancer, Uterine Cancer | RCC, CLL
79 (AMKEEKEQL; listed as Homo sapiens) [compound 79] |  | +++ | AML | 
28 (FLSNANPSL; listed as Homo sapiens) [compound 28] |  | +++ | CLL, BRCA, Uterine Cancer | SCLC, HNSCC
183 (VLFETVLTI; listed as Homo sapiens) [compound 183] |  | + | CLL, AML, Urinary bladder cancer, Uterine Cancer | HNSCC
189 (SLSHLVPAL; listed as Homo sapiens) [compound 189] |  | + | CLL | 
56 (GLQDLLFSL; listed as Homo sapiens) [compound 56] |  | ++ | CLL, AML | Melanoma
264 (ILTGTPPGV; listed as Homo sapiens) [compound 264] |  | +++ | BRCA | 
94 (LLAGQATTAYF; listed as Homo sapiens) [compound 94] |  | +++ | RCC | 
122 (AISEAQESV; listed as Homo sapiens) [compound 122] |  | + | RCC, CLL, BRCA, Uterine Cancer | HNSCC
21 (ALFKEAYSL; listed as Homo sapiens) [compound 21] |  | +++ | Esophageal Cancer | 
224 (FLSPLLPLL; listed as Homo sapiens) [compound 224] |  | + | HCC, CLL | AML
266 (QLTEMLPSI; listed as Homo sapiens) [compound 266] |  | +++ | SCLC, HCC, Melanoma, Gallbladder Cancer, Bile Duct Cancer | 

Substance | Gene Expression (expression score) [1] | Peptide Presentation [2] | Other relevant organs/diseases [3] | Other relevant organs / diseases (additional tumor types with over-presentation) [3]
105 (VLTPVILQV; listed as Homo sapiens) [compound 105] |  | +++ | CLL, AML | 
96 (LLLNENESLFL; listed as Homo sapiens) [compound 96] |  | +++ | HCC, CLL, BRCA, Melanoma, OC, Uterine Cancer | HNSCC
277 (FLIDLNSTHGTFL; listed as Homo sapiens) [compound 277] |  | + | CLL | 
29 (ILSDVTQGL; listed as Homo sapiens) [compound 29] |  | +++ | CLL, BRCA, Uterine Cancer | 
97 (LLNFSPGNL; listed as Homo sapiens) [compound 97] |  | +++ | CRC | 
40 (FLNSVIVDL; listed as Homo sapiens) [compound 40] |  | + | CLL, Melanoma, Urinary bladder cancer | 
128 (KLFDASPTFFA; listed as Homo sapiens) [compound 128] |  | ++ | CLL, Gallbladder Cancer, Bile Duct Cancer | OC, HNSCC
47 (GLLPKLTAL; listed as Homo sapiens) [compound 47] |  | + | RCC, Brain Cancer, CRC, HCC, AML, Melanoma, Esophageal Cancer, OC, Uterine Cancer | HNSCC
186 (FLDVSRDFV; listed as Homo sapiens) [compound 186] |  | + | SCLC, CLL | 
121 (YLTGYNFTL; listed as Homo sapiens) [compound 121] |  | +++ | Uterine Cancer | AML
161 (NLMLELETV; listed as Homo sapiens) [compound 161] |  | +++ | Uterine Cancer | 
99 (QLYDGATALFL; listed as Homo sapiens) [compound 99] |  | +++ |  | HNSCC
163 (SIFDAVLKGV; listed as Homo sapiens) [compound 163] |  | +++ | RCC, CRC, BRCA, Uterine Cancer | HCC, Urinary Bladder Cancer, HNSCC
54 (DIFDAMFSV; listed as Homo sapiens) [compound 54] |  | +++ |  | CLL
165 (KLLEEIEFL; listed as Homo sapiens) [compound 165] |  | ++ | RCC, AML, BRCA, Melanoma, Esophageal Cancer, Gallbladder Cancer, Bile Duct Cancer | 
69 (TLLAFPLLL; listed as Homo sapiens) [compound 69] |  | + | HCC, CLL, AML, Melanoma, Gallbladder Cancer, Bile Duct Cancer | HNSCC
271 (YLLDQPVLEQRL; listed as Homo sapiens) [compound 271] |  | +++ | CLL, Melanoma | 
81 (FIFSYITAV; listed as Homo sapiens) [compound 81] |  | +++ | CLL | 
289 (SLLAANNLL; listed as Homo sapiens) [compound 289] |  | +++ | HCC, Uterine Cancer, Gallbladder Cancer, Bile Duct Cancer | AML
67 (LLATVNVAL; listed as Homo sapiens) [compound 67] |  | +++ | CLL, Uterine Cancer | HNSCC
